These are yes or no findings as the source states them, for the method shown. Some results given as binding are weak or reduced against the parent protein; the word gives no strength.
Legend:
[1] = biological target: T1, human von Willebrand Factor (human, UniProt P04275 764-2813); experiment: filter lift and ELISA of periplasmic Fab on captured human vWF
T1 construct: In the ELISA captured on plates by goat anti-human vWF; biotinylated in the plaque lift; also called vWF; human vWF

Amino acid sequences for entries named in this document (tags omitted). Residues count along the entry.
UniProt P04275, residues 764-2813: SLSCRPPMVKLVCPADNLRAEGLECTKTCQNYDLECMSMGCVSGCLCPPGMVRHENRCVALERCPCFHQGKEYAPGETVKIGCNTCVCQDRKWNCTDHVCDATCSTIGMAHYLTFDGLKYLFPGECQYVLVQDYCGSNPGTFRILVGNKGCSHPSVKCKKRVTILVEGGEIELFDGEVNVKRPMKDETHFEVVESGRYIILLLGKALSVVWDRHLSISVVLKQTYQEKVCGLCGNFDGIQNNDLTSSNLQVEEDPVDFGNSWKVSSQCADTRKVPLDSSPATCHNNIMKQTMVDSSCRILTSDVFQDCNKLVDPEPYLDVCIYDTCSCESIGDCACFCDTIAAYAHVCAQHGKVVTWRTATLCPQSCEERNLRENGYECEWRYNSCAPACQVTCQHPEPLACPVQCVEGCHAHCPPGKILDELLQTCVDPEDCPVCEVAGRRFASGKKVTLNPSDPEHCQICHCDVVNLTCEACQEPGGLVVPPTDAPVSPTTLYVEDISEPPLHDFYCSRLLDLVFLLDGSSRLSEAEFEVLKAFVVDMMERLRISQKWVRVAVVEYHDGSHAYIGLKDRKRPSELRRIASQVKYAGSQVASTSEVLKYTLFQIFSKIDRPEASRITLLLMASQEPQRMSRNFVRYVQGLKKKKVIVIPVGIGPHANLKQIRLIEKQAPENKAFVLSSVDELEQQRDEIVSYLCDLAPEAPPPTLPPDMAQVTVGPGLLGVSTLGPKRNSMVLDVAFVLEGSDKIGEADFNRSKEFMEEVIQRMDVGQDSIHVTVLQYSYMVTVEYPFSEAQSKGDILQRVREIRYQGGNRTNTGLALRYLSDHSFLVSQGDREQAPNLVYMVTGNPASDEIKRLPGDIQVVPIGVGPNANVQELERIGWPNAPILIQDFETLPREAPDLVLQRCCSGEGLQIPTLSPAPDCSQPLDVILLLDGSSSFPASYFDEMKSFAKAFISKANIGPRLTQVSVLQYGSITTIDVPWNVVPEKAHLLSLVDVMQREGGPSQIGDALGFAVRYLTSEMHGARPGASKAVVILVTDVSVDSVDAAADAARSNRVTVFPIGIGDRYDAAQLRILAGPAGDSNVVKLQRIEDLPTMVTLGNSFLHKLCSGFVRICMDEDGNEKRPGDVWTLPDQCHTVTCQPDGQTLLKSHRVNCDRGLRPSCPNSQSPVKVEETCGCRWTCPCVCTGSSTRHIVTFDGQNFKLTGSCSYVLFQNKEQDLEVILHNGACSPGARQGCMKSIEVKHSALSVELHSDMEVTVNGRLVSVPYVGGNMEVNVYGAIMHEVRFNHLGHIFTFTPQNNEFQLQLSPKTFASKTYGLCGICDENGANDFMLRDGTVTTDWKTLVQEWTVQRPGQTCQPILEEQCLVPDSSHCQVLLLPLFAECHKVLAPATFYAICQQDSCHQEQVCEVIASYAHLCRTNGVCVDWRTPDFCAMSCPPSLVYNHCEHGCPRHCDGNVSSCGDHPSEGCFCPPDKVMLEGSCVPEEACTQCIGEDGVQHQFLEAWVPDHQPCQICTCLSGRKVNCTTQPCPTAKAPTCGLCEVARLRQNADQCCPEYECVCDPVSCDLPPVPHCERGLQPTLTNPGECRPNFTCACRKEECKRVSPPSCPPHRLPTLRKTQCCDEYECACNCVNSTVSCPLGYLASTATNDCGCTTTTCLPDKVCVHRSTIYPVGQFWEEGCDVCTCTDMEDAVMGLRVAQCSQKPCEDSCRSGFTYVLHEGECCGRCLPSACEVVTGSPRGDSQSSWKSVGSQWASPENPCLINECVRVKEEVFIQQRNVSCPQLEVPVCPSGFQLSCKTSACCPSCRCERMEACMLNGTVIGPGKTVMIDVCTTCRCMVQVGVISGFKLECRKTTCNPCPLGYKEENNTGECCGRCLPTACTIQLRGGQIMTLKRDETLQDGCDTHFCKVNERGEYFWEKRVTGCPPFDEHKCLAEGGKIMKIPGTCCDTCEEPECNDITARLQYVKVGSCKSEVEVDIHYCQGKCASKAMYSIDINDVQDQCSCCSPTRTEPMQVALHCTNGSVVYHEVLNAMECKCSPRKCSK

[2] = biological target: T1, human von Willebrand Factor; experiment: ELISA: human vWF captured on goat anti-human vWF coated plates, Fab dilutions, goat anti-human kappa alkaline phosphatase, O.D. 560 after 30 min
[3] = biological target: T1, human von Willebrand Factor; experiment: vWF ELISA (FIG. 6), reference

Row | Binder | binding [1] | binding [2] | binding [3]
1 | anti-vWF combinatorial library clone C1 Fab (Fab, V domains shown, Fab with human CL and CH1) VH: EVQLVESGGGLVQPGGSLRLSCAASGFSLGDYGVDWVRQAPGKGLEWVGMIWPDGSTDYNSALQSRFTISRDDSKNSLYLQMNSLKTEDTAVYYCARDPADYGNYNYALDYWGQGTTVTVS VL: DIQMTQSPSSLSASVGDRVTITCSASQDINDYLNWYQQKPGKAPKLLIYNTSSLHSGVPSRFSGSGSGTDFTLTISSLQPEDFATYYCQQYEDLPWTFGGGTKVEIK | binds | binds | 
2 | anti-vWF combinatorial library clone C4 Fab (Fab, V domains shown, Fab with human CL and CH1) VH: EVQLVESGGGLVQPGGSLRLSCAASGFSLGDYGVDWVRQAPGKGLEWVGMIWGDGSVDVNSALQSRFTISRDDSKNSLYLQMNSLKTEDTAVYYCARDPADYGNYNYALDYWGQGTTVTVS VL: DIQMTQSPSSLSASVGDRVTITCSASQDINDYLNWYQQKPGKAPKLLIYGTSSLHSGVPSRFSGSGSGTDFTLTISSLQPEDFATYYCQQYEDLPWTFGGGTKVEIK | binds | binds | 
3 | anti-vWF combinatorial library clone C8 Fab (Fab, V domains shown) VH: EVQLVESGGGLVQPGGSLRLSCAASGFSLGDYGVDWVRQAPGKGLEWVGMIWPDGSTDVNSALQSRFTISRDDSKNSLYLQMNSLKTEDTAVYYCARDPADYGNYNYALDYWGQGTTVTVS VL: DIQMTQSPSSLSASVGDRVTITCSASQDINDYLNWYQQKPGKAPKLLIYNTSVLHSGVPSRFSGSGSGTDFTLTISSLQPEDFATYYCQQYEDLPWTFGGGTKVEIK | binds | binds | 
4 | anti-vWF combinatorial library clone C9 Fab (Fab, V domains shown) VH: EVQLVESGGGLVQPGGSLRLSCAASGFSLGDYGVDWVRQAPGKGLEWVGMIWPDGSTDVNSALKSRFTISRDDSKNSLYLQMNSLKTEDTAVYYCARDPADYGNYDYALDYWGQGTTVTVS VL: DIQMTQSPSSLSASVGDRVTITCSASQDINDYLNWYQQKPGKAPKLLIYNTSSLHVGVPSRFSGSGSGTDFTLTISSLQPEDFATYYCQQYEDLPWTFGGGTKVEIK | binds | binds | 
5 | NMC-4 antibody (parental/donor antibody) (antibody, V domains shown, also called parental/donor NMC-4 antibody) VH: VQLLESGPGLVAPSQSLSITCTVSGFSLTDYGVDWVRQPPGKGLEWLGMIWGDGSTDYNSALKSRLSITKDNSKSQVFLKMNSLQTDDTARYYCVRDPADYGNYDYALDYWGQGTSVTVS VL: SSLSASLGDRVTISCSASQDINKYLNWYQQKPDGAVKLLIFYTSSLHSGVPSRFSGSGSGTDYSLTISNLEPEDIATYYCQQYEKLPWTFGGGTKLEVK |  | binds | binds
6 | anti-vWF combinatorial library clone C7 Fab (Fab, V domains shown) VH: EVQLVESGGGLVQPGGSLRLSCAASGFSLGDYGVDWVRQAPGKGLEWVGMIWPDGSTDINSALKSRFTISRDDSKNSLYLQMNSLKTEDTAVYYCARDWADYGNYNYALDYWGQGTTVTVS VL: DIQMTQSPSSLSASVGDRVTITCSASQDINDYLNWYQQKPGKAPKLLIYNTSSLHSGVPSRFSGSGSGTDFTLTISSLQPEDFATYYCQQYEDLPWTFGGGTKVEIK | binds |  | 

From patent US20040162413A1 (published 2004)
